According to paper PMC9905200:
Like-named read-outs stand apart in the source and are kept apart here. No constants are given. Whether binding was seen depends on the method and setting. In cells and extracts the contact can be indirect. Here binding means that the protein was enriched with, or labelled near, the bait; the list need not be complete. Blank lines part the entries; values can stand above or below the molecule they belong to.

Protein sequences, listed by entry. Tags and fused reporters are not part of them. Lines headed by an entry give the natural chain unless they say otherwise; changes in a name come on top. Residues count along the entry.
UniProt P02649, residues 19-317: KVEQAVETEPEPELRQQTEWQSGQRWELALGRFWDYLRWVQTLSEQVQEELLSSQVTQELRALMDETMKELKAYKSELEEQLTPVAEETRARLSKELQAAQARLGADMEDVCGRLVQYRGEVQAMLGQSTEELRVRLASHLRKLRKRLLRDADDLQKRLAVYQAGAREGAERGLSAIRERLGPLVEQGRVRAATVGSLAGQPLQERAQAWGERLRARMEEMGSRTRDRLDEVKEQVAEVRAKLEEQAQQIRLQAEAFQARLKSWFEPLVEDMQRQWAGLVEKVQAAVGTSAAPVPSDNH
UniProt Q60932: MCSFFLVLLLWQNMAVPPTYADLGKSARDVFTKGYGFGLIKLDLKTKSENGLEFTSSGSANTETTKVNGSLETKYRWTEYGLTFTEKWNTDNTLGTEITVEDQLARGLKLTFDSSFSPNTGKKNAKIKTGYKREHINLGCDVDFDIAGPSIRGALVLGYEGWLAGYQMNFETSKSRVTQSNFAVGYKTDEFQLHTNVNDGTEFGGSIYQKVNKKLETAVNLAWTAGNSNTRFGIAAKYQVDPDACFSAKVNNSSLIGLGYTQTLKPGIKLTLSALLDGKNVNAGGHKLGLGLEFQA
UniProt P07724, residues 25-608: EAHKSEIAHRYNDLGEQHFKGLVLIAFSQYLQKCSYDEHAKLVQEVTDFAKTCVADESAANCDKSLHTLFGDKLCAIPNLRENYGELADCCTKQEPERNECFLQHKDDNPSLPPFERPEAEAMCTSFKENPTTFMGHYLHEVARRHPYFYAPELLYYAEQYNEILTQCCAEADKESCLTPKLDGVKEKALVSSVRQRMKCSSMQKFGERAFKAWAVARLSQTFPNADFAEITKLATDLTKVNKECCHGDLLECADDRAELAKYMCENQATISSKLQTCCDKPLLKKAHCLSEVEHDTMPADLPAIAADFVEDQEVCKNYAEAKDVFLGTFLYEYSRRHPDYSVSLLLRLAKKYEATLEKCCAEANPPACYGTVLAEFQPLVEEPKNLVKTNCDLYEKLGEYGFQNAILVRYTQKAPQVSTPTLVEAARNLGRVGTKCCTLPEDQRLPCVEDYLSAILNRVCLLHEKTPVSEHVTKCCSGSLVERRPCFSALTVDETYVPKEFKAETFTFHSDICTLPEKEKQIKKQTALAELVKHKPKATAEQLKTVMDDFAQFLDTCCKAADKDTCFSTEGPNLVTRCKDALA

Experiments:
[1] = molecular target: human apolipoprotein E3 (APOE3) in APOE3 targeted replacement mouse liver (human) (UniProt P02649); assay: affinity purification with mass spectrometry; APOE co-IP from liver tissue lysates (NP40 lysis buffer) of two female APOE TR mice (1 x APOE3, 1 x APOE4) with two anti-APOE antibodies (sc-13521, sc-390925), Protein G Sepharose, 4 °C; four co-IPs analysed by LC-MS; control without antibody
[2] = molecular target: human apolipoprotein E3 (APOE3) in APOE3 targeted replacement mouse liver (human) (UniProt P02649); assay: as above; remark: listed apart in the source

B1: branched-chain alpha-keto acid dehydrogenase (BCKD) complex subunit alpha (BCKDHA), mouse liver (protein, UniProt P50136 43-442)
chain: PSLDDKPQFPGASAEFVDKLEFIQPNVISGIPIYRVMDRQGQIINPSEDPHLPQEEVLKFYRSMTLLNTMDRILYESQREGRISFYMTNYGEEGTHVGSAAALERTDLVFGQYREAGVLMYRDYPLELFMSQCYGNVNDPGKGRQMPVHYGCKERHFVTISSPLATQIPQAVGAAYAAKRANANRIVICYFGEGAASEGDAHAGFNFAATLECPIIFFCRNNGYAISTPTSEQYRGDGIAARGPGYGIKSIRVDGNDVFAVYNATKEARRRAVAENQPFLIEAMTYRIGHHSTSDDSSAYRSVDEVNYWDKQDHPISRLRQYLLNQGWWDEEQEKAWRKQSRKKVMEAFEQAERKLKPNPSLLFSDVYQEMPAQLRRQQESLARHLQTYGEHYPLDHFEK
binding [2]: binds

B2: branched-chain alpha-keto acid dehydrogenase subunit beta, mouse liver (protein, UniProt Q6P3A8 49-390)
chain: VAHFTFHPDPESLQYGQTQKMNLFQSITSALDNSLAKDPTAVIFGEDVAFGGVFRCTVGLRDKYGKDRVFNTPLCEQGIVGFGIGIAVTGATAIAEIQFADYIFPAFDQIVNEAAKYRYRSGDLFNCGSLTIRAPWGCVGHGALYHSQSPEAFFAHCPGIKVVIPRSPFQAKGLLLSCIEDKNPCIFFEPKILYRAAVEQVPVEPYKIPLSQAEVIQEGSDVTLVAWGTQVHVIREVASMAQEKLGVSCEVIDLRTIVPWDVDTVCKSVIKTGRLLISHEAPLTGGFASEISSTVQEECFLNLEAPISRVCGYDTPFPHIFEPFYIPDKWKCYDALRKMINY
binding [2]: binds

B3: leucine-rich repeat-containing protein 59, mouse liver (protein, UniProt Q922Q8 1-307)
chain: MTKAGSKGGNLRDKLDGNELDLSLSDLNEVPVKELAALPKATVLDLSCNKLSTLPSDFCGLTHLVKLDLSKNKLQQLPADFGRLVNLQHLDLLNNRLVTLPVSFAQLKNLKWLDLKDNPLDPVLAKVAGDCLDEKQCKQCANKVLQHMKAVQADQERERQRRLEVEREAEKKREAKQQAKEAKERELRKREKAEEKERRRKEYDAQKASKREQEKKPKKEANQAPKSKSGSRPRKPPPRKHTRSWAVLKVLLLLLLLCVAGGLVVCRVTGLHQQPLCTSVNTIYDNAVQGLRHHEILQWVLQTDSQQ
binding [2]: binds

The next lines start with the values.

binding [1]: binds
Molecule: voltage-dependent anion-selective channel 1 (VDAC1), mouse liver (from UniProt Q60932)

binding [1]: binds
Molecule: serum albumin, mouse liver (from UniProt P07724 25-608)
